## Screening data, single-dose tests

Values are the deposited “Percent Effect”, in %. The record does not define 0% and 100%; most values in the screen are far below 50% and negative numbers occur (in some assays of this library far below -100). The compounds are a random part of those screened.

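Assay of Toxoplasma gondii numbers, read through their beta-galactosidase reporter with a colour substrate. Tested at 50 µM. Higher reads as fewer parasites (inferred from which compounds were picked for retests). About 18,000 compounds were tested under these conditions; 0.94% (about 170) showed 50% or more at least once.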

compound,effect
O=C(c1ccco1)N1C[C@H](O)[C@@H](N2CCCCC2)C1,-14.49
Cc1nonc1CC(=O)N1CC[C@H]2CNC[C@H]21,-11.98
OCc1ccc(Cl)cc1-n1cncn1,0.6412
CCCN(C)Cc1nc(-c2cccnc2)no1,-0.459
CCOCCN1CCN(CC(C)O)CC1 (stereo unspecified),-13.93
Cc1ccc(F)cc1CNCC1(O)CCOC1 (stereo unspecified),3.852
CCN(CC)C(=O)C1CCCN(Cc2ccco2)C1 (stereo unspecified),-2.929
CCCOCC(=O)Nc1ncccc1NC(C)=O,-14.74
CCc1nnc2n1CC(NC(=O)Cn1cccn1)CC2 (stereo unspecified),3.415
COc1ccc(N2CCCN(CCC(N)=O)CC2)cc1,3.531
CN(C)S(=O)(=O)CCCS(=O)(=O)Cc1cccc(F)c1,-11.03
Cc1cc(C(=O)NCCCNCc2cccnc2)no1,-16.56
CN(CC(=O)NCCC#N)Cc1ccc2c(c1)OCO2,3.796
O=C(NCCO)c1cc2c(F)cc(Br)cc2[nH]1,12.85
CCS(=O)(=O)N1CCC(C(=O)NCCN(C)C)CC1,1.357
Cc1ccccc1C(C)NC(=O)Cn1ccccc1=O (stereo unspecified),-6.997
CCc1cccc2c1N(C(=O)[C@@H](N)CC)CC2,-0.697
CCCN1CC(C(=O)NCc2cccnc2)CC1=O (stereo unspecified),0.654
Cc1ccccc1CS(=O)(=O)CC(N)=O,-1.67
CN(CCc1ccccn1)C(=O)C1CCCNCC1 (stereo unspecified),23.68
OCC1(NCC2CC2)CCNCC1,-1.71
CCN(CC)C(=O)CCC1CCNCC1,2.532
CNC(=O)NC(=O)C(C)Sc1nnc(NCC(C)C)s1 (stereo unspecified),2.909
CN1CCCC2(CCNC2)C1=O (stereo unspecified),-6.484
CC(Nc1cccc(OC(F)(F)F)c1)C(=O)NC(N)=O (stereo unspecified),8.119
Nc1cc(CO)ccn1,-20.31
CC(Nc1cc(=O)n(C)c(=O)n1C)c1ccccc1 (stereo unspecified),-16.76
CSc1nc2sccc2c(=O)n1C,-18.5
CCOc1ccc(CNS(=O)(=O)N(C)C)cc1C,-23.29
CC1(C)C(=O)NCCN1C(=O)C1CCC1,-3.922
CCOCCN1CCN(CC)[C@@H]2CS(=O)(=O)C[C@@H]21,5.251
CN(C)C(=O)CNC(=O)C(C)(C)Oc1ccc(Cl)cc1,-4.2
CS(=O)(=O)NCCC(=O)NC1CCc2ccccc2C1 (stereo unspecified),8.019
Cc1nnnn1CCC(=O)NCc1cn2ccsc2n1,-24.4
COc1ccc(S(=O)(=O)Nc2cc(C)ccn2)cc1,1.439
O=C(COc1cccc(F)c1)N1CCN(CCO)CC1,-7.467
COc1ccc(Cn2cnc(N)n2)cc1,-15.5
CO[C@H]1CNCC1NC(=O)C1CC=CC1 (stereo partly specified),-8.314
Cn1cc(C(=O)NCCNS(C)(=O)=O)c2ccccc21,-11.63
COc1cccc(C(=O)NC2CCN(C(C)C)CC2)c1,0.0853
Cc1cc(NC(=O)Cc2ccc3c(c2)OCCO3)no1,6.05
CC(=O)c1ccc(OCCN2CCN(C)CC2)cc1,-19.16
CC1CCCCN1CC(=O)N(C)C (stereo unspecified),8.234
CC1CCCCN1CCN (stereo unspecified),-2.082
COc1cccc(-n2cc(N)nn2)c1,1.319
Cn1ccnc1CNCCO,-3.188
CC(C)(C)CC(=O)NCCNC(=O)c1ccco1,2.983
CN(C)S(=O)(=O)Nc1cccc(OCCF)c1,4.439
CCCS(=O)(=O)NCC(O)CN1CCCC1 (stereo unspecified),-5.354
O=C(NCC1(CO)CC1)OCc1ccccc1,-12.24
CN(C(c1ccccc1)c1ccccn1)S(C)(=O)=O (stereo unspecified),3.797
O=C(CO)NC1CCCc2ccccc21 (stereo unspecified),-1.087
c1cnc2sc(N3CCCNCC3)nc2c1,-3.084
CC(=O)N1CCC[C@H]1C(=O)Nc1ccncc1F,-12.08
CC(Sc1nnc(C(C)(C)C)o1)C(=O)NC(N)=O (stereo unspecified),17.77
FC(F)Oc1ccc(NCCn2ccnc2)nc1,-6.712
COc1ccccc1CCC(=O)Nc1nncn1C,-2.104
O=C(NCc1ccccc1CO)Nc1nncs1,-29.7
CCNc1ncc(C(=O)NCCN2CCOC2=O)cn1,-24.29
CCOC(=O)c1ccc(CNc2nncs2)o1,19.94
NCC(O)c1ccncc1 (stereo unspecified),1.266

The last 6 entries again:

compound	effect
FC(F)Oc1ccc(NCCn2ccnc2)nc1	-6.712
COc1ccccc1CCC(=O)Nc1nncn1C	-2.104
O=C(NCc1ccccc1CO)Nc1nncs1	-29.7
CCNc1ncc(C(=O)NCCN2CCOC2=O)cn1	-24.29
CCOC(=O)c1ccc(CNc2nncs2)o1	19.94
NCC(O)c1ccncc1 (stereo unspecified)	1.266

Source: ChEMBL document CHEMBL3988442, “University of Dundee, Small-Polar-MMV Screening Library” (2021).